Experimental findings from paper PMC10232262 are described below.

Chains of the proteins cited; added tags and fusions are not shown.
UniProt Q7Z2W7: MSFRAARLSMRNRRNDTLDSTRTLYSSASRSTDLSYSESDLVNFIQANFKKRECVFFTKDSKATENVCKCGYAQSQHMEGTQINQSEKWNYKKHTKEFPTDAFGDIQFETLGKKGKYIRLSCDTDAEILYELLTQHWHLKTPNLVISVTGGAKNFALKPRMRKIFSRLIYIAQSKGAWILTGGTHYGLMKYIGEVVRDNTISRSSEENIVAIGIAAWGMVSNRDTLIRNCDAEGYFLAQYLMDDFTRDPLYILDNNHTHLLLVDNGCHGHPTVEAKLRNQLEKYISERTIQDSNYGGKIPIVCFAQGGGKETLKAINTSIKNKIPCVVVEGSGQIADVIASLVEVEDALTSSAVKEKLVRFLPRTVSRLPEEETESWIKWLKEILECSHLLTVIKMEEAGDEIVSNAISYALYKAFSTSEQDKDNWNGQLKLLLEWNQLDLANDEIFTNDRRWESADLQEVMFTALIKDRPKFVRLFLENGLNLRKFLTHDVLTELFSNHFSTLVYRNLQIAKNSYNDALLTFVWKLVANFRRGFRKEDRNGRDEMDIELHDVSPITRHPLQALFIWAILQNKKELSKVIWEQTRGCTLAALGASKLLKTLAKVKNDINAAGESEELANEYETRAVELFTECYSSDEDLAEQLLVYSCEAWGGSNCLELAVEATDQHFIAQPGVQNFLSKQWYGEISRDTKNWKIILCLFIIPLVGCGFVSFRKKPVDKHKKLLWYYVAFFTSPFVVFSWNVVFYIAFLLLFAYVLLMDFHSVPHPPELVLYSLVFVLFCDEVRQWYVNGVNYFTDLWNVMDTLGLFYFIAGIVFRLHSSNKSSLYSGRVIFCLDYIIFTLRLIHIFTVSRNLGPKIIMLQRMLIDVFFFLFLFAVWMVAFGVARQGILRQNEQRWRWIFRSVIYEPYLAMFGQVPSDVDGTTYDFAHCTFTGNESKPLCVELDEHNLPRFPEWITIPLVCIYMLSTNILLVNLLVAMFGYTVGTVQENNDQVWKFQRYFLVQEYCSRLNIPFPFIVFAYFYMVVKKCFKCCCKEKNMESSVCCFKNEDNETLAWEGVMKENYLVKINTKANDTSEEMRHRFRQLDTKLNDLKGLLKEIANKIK
UniProt Q8NER1: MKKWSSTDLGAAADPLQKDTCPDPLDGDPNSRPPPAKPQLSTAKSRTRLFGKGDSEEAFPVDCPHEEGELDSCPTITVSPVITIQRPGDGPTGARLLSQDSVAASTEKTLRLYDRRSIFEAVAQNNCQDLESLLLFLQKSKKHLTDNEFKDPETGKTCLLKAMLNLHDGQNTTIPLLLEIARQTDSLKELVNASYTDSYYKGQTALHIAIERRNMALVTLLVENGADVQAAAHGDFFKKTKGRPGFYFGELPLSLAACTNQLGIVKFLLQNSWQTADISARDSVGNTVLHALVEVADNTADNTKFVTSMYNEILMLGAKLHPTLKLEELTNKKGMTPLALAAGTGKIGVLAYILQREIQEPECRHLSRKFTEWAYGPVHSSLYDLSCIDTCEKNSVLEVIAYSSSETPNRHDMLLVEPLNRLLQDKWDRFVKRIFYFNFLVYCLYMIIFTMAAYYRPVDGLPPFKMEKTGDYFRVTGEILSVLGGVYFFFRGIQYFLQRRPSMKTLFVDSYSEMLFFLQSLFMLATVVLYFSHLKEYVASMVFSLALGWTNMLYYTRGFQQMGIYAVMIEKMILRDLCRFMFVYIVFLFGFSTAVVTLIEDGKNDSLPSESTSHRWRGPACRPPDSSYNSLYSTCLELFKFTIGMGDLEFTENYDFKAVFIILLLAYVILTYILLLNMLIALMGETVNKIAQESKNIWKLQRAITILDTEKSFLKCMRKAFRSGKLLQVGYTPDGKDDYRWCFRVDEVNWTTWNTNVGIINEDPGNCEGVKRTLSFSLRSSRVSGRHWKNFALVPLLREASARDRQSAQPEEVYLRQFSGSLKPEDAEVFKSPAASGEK
UniProt P46940: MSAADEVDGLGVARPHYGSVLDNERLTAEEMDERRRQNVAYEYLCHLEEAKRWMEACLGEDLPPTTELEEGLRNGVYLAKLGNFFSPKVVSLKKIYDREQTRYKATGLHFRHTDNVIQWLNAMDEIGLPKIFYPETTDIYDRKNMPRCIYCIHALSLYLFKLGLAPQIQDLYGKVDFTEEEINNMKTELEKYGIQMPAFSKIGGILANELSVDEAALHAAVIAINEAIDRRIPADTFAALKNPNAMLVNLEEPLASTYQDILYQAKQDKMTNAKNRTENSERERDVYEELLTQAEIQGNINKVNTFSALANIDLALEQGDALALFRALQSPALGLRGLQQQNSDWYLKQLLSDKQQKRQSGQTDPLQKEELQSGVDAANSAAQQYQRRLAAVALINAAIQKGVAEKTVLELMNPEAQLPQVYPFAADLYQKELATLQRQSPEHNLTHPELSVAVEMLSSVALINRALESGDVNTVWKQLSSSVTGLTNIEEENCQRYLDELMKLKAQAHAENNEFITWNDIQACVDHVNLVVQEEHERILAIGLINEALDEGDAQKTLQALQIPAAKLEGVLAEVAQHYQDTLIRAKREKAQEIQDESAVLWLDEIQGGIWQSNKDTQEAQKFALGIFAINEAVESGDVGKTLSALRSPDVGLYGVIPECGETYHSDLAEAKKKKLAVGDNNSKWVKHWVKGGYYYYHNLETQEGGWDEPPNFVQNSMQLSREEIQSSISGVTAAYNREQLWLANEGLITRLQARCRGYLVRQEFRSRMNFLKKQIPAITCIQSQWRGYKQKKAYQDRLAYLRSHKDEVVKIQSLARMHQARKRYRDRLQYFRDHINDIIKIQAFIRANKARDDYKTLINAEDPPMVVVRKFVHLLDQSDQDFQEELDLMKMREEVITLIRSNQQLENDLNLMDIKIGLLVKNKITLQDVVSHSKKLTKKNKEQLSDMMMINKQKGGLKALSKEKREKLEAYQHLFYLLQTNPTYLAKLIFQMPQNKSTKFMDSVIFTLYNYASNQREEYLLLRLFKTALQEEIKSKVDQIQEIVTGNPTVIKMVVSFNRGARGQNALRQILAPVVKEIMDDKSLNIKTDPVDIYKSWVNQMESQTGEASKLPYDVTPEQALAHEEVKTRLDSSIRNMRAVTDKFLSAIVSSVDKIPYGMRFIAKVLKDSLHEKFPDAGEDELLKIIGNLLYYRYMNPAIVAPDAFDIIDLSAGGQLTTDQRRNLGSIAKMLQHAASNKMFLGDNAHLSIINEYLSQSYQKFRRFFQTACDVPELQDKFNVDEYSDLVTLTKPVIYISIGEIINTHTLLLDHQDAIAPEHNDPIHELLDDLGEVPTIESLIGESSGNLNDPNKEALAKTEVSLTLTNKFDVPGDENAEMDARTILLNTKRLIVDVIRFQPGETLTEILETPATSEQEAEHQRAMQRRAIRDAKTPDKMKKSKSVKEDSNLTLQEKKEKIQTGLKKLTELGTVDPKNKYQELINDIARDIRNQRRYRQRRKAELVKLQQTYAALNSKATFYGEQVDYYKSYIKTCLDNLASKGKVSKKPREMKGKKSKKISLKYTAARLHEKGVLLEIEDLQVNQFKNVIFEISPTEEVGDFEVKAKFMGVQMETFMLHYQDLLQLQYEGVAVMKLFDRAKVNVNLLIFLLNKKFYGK

These are yes or no findings as the source states them, for the method shown. Binding seen in cells or lysates may run through a third protein.

The target in one assay is TRPM8-V5-His (UniProt Q7Z2W7). The assay is described as follows: co-IP; HEK293 cells transfected with V5-His-tagged TRP channels and IQGAP1; blot stripped and reprobed with anti-V5.
The next assay concerns the target TRPV1-V5-His (UniProt Q8NER1). The assay is described as above.

As to “Myc-IQGAP1 (pCDNA3-Myc-IQGAP1) (from UniProt P46940 1-1657)”, the binding entry with TRPM8-V5-His and with TRPV1-V5-His was “no binding” each time.
